# Measurements as given in US20240261333A1, “NOVEL TARGETS FOR ENHANCING ANTI-TUMOR IMMUNITY” (THE BROAD INSTITUTE, INC., priority 2021, published 2024).
# The chains behind the UniProt entries cited, without tags or fusion partners. Residues count along the entry.
# UniProt Q92692, residues 32-538: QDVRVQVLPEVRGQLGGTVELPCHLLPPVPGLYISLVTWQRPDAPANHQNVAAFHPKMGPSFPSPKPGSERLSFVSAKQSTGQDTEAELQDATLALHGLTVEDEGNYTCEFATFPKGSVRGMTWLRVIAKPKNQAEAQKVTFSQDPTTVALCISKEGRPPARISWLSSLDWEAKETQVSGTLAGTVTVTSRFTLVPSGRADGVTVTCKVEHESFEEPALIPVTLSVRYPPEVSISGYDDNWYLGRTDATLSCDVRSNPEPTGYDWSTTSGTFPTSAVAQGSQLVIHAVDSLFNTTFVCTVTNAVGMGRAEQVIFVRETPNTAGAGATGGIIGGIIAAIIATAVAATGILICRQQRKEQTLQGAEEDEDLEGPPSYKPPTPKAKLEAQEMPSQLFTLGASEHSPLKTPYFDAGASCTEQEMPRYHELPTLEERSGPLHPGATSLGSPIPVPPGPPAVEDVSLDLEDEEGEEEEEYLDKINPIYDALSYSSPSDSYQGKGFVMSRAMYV
# UniProt Q9NY97: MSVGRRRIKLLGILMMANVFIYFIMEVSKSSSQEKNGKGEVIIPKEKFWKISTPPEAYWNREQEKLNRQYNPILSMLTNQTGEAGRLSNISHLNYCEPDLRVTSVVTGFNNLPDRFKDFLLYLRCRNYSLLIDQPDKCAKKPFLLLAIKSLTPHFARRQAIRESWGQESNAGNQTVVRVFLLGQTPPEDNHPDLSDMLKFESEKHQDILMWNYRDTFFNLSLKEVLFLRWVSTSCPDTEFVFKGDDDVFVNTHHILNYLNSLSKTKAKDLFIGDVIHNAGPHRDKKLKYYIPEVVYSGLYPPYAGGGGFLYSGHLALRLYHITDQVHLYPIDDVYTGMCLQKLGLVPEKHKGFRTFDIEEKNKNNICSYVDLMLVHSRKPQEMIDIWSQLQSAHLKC
# Results are given in words; binding and its absence hold for the method and conditions named. In cells and extracts the contact can be indirect. Some entries that bind do so weakly or less than the wild type.
# Molecular target: NECTIN2, endogenous in A375 melanoma cells (human) (UniProt Q92692)
# Experiment: co-IP of FLAG tagged B3GNT2 from A375 lysate, Western blot
substance,measurement,value
FLAG tagged B3GNT2 (N- or C-terminal FLAG tag) (from UniProt Q9NY97 1-397) (enzyme),binding,binds
